Values quoted from earlier work as cited in patent publication US5308843A, “Method of inhibiting mammalian topoisomerase II and malignant cell growth in mammals, with substituted (S)-3-methyl-7-oxo-2,3-dihydro-7H-pyrido[1,2,3-de][1,4 ]-benzoxazine(and-benzothiazine)-6-carboxylic acids” (Sterling Drug Inc., priority 1990, dated 1994).
Values after ≈ are worked out from the molar mass of the structure shown. At least one read-out could not be matched to a standard name with certainty.

Tested on: calf thymus topoisomerase II
Conditions: in vitro, Jefson et al. 1989; cited from earlier work
In the case of `C[C@@H]1COc2c(-c3ccncc3)c(F)cc3c(=O)c(C(=O)O)cn1c23` [R-(+)-CP-91,120], the CC50 is listed as 380 µg/mL (≈ 1120 µM).
For `C[C@@H]1COc2c(-c3ccc4ncccc4c3)c(F)cc3c(=O)c(C(=O)O)cn1c23` [R-(+)-CP-100,965], the CC50 is given as > 1000 µg/mL.
In the case of `C[C@H]1COc2c(-c3ccc4ncccc4c3)c(F)cc3c(=O)c(C(=O)O)cn1c23` [S-(-)-CP-100,964, (S)-9-fluoro-3-methyl-10-(6-quinolyl)-7-oxo-7H-pyrido[1,2,3-de][1,4]benzoxazine-6-carboxylic acid], the CC50 is listed as 20 µg/mL (≈ 51.2 µM).
In the case of `C[C@H]1COc2c(-c3ccncc3)c(F)cc3c(=O)c(C(=O)O)cn1c23` [S-(-)-CP-92,121, (S)-9-fluoro-3-methyl-10-(4-pyridyl)-7-oxo-7H-pyrido[1,2,3-de][1,4]benzoxazine-6-carboxylic acid], the CC50 is given as 30 µg/mL (≈ 88.2 µM).
